Paper PMC12567083, “N-terminal oligomerization drives HDAC4 nuclear condensation and neurodevelopmental dysfunction in Drosophila” (Open Biology, 2025)
Where a chain is given by its changes, count along the chain named. Names may count otherwise. No constants are given. Whether binding was seen depends on the method and setting. In cells and extracts the contact can be indirect. Some results given as binding are weak or reduced against the parent protein; the word gives no strength. Where a sequence is shown, tags or fusion partners need not be part of it.

T1: GFP-HDAC4^WT (GFP-tagged wild-type Drosophila HDAC4) (Drosophila) (UniProt Q9VYF3)
T1 sequence: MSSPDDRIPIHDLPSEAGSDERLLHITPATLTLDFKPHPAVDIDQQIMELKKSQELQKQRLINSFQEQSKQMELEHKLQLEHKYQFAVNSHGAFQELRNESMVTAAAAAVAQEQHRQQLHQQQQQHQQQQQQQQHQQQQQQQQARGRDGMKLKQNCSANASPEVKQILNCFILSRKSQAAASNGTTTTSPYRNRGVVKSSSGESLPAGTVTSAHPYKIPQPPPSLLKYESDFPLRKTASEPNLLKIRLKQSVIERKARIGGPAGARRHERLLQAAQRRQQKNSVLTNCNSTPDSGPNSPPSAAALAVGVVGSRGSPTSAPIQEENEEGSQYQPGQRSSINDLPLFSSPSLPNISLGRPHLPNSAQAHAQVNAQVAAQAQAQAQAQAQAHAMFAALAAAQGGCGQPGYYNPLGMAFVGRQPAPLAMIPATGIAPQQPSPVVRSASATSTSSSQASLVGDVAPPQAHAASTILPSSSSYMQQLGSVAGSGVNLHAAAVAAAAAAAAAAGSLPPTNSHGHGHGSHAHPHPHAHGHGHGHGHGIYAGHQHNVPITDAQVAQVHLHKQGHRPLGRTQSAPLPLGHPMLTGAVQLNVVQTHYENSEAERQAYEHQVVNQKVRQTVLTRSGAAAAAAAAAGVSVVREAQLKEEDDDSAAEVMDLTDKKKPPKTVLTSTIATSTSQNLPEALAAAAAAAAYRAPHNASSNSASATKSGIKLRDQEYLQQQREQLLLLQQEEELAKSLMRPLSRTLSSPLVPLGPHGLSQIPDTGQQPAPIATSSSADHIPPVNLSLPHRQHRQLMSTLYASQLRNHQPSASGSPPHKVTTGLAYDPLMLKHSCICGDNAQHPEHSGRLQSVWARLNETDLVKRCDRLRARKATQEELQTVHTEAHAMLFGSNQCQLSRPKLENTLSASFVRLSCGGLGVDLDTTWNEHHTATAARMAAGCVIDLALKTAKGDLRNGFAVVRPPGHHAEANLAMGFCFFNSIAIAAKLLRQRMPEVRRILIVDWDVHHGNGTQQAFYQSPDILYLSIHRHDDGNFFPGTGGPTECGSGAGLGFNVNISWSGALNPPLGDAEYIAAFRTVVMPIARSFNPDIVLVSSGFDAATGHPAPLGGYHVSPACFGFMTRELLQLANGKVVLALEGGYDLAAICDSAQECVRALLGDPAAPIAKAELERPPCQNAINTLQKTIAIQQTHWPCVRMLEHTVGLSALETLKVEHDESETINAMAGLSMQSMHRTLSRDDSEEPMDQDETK

B1: HDAC4^S69F-Myc (protein, UniProt Q9VYF3 1-1252)
chain: T1 sequence with S69F
B2: HDAC4^WT-Myc (wild-type Drosophila HDAC4 with C-terminal 6x Myc tag) (protein, UniProt Q9VYF3 1-1252)
chain: T1 sequence

Target: T1, GFP-HDAC4^WT (GFP-tagged wild-type Drosophila HDAC4) (Drosophila)
Assay: co-IP; GFP-HDAC4^WT precipitated with anti-GFP on protein A/G magnetic beads from 2 mg whole cell lysate of adult fly heads co-expressing Myc-tagged HDAC4 (elav-GAL4), overnight at 4°C; blot for Myc

Binder	binding
B1	binds
B2	binds
